No constants are given. Whether binding was seen depends on the method and setting.
Legend:
[1] = biological target: Sla2 ANTH domain K10D/K13D/K14D (S. cerevisiae); assay: dynamic light scattering; proteins mixed at 30 µM in presence of 200 µM PIP2, overnight at 4 °C; measured at 25 °C; both purified
[2] = biological target: Sla2 ANTH domain K10D/K13D/K14D (S. cerevisiae); assay: condition: 10 µM monomeric proteins, 60 or 200 µM PIP2; native MS; ANTH and ENTH 1:1, 10 µM monomeric proteins, 60 or 200 µM PIP2, 300 mM ammonium acetate, 1 mM DTT, pH 8; both purified

binding [2]: no binding
B1: Ent1 ENTH domain (S. cerevisiae), wild type (domain or fragment, UniProt Q12518 1-154)
chain: MSKQFVRSAKNLVKGYSSTQVLVRNATSNDNHQVSKDSLIELAEKSYDSADFFEIMDMLDKRLNDKGKYWRHIAKALTVIDYLIRFGSENCVLWCRENLYIIKTLKEFRHEDDEGIDQGQIVRVKAKELTALLSDDERLNEERNMNIKGRNRKG
binding [1]: no binding (tested: 30 µM proteins, 200 µM PIP2)

— PMC8129110
